# In all, about 33,000 sequences were measured (“E-score (-0.5 to 0.5)”: median about -0.0014, highest 2% from about 0.25 on). This is one part of the list.
# Target: T1, Cad1 (UniProt P24813)
# T1 sequence: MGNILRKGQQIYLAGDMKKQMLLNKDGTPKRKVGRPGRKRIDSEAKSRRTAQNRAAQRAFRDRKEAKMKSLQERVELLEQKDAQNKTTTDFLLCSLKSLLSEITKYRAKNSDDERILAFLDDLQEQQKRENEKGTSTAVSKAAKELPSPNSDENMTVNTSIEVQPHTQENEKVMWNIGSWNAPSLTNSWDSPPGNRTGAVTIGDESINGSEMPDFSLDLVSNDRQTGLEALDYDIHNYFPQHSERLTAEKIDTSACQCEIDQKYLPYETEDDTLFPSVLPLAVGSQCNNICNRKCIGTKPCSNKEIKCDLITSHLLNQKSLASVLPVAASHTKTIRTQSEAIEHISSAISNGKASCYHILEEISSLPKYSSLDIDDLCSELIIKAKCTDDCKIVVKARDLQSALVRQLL
# Assay: PBM E-score (8-mer binding enrichment) (E-score (-0.5 to 0.5)); higher = stronger / more preferred TF binding
# Settings: protein concentration: 100 nM; construct: GST-full length
# How it was run: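 Using PURExpress in vitro transcription/translation, GST-tagged yeast transcription factors were made in full-length or DNA-binding-domain form. These were applied at about 100-200 nM to double-stranded universal all-10-mer Agilent arrays, and bound protein was detected with fluorescent anti-GST. Scans were normalised with masliner before the Universal PBM Analysis Suite assigned E-scores to ungapped eight-base words pooled with their reverse complements.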
row,Sequence,PBM E-score
1,CCTGATAA,0.0917
2,CCCCTAAA,-0.326
3,GGCGCTGA,-0.0921
4,ACATGTCG,0.0503
5,ATCATGGC,0.0916
6,CCGCCACG,-0.145
7,CACCGTTC,-0.0379
8,ACTATGGG,-0.127
9,ACTTGGTC,0.0646
10,GTTTTCAA,0.203
11,GGAGCATA,0.00116
12,ACTGCCAC,-0.11
13,AAGCATAC,0.0338
14,AGTCGTCC,-0.0982
15,CATACAGG,0.0745
16,AGATGTAA,0.117
17,CCCCTGAG,-0.15
18,ATATCAAG,0.251
19,ATAAAGCA,0.132
20,CGGTCCAA,-0.108
21,CTATCATC,0.063
22,ACTGAGGG,-0.241
23,CGTGATCA,0.123
24,AGGAACTA,-0.0396
25,ATGCCAGG,-0.0794

row,Sequence,PBM E-score
1,ATAGGAAG,-0.0607
2,TCCACGGA,0.282
3,ATATGCCC,-0.113
4,AATCGTTA,0.0983
5,ATACCTAC,-0.0299
6,CCAGCTCC,-0.198
7,GAATTGCA,0.00529
8,AGACTGCG,-0.0453
9,ACTCGAAC,0.0268
10,GATGACCC,-0.0103
11,AAGTTTAC,0.139
12,TATTCTGA,-0.0228
13,CTATGGAG,-0.212
14,ACACCGGG,-0.147
15,AGACTGGG,-0.134
16,GCTTGAGA,-0.126
17,AGTACGGC,0.0355
18,ATAGTTTA,0.0246
19,CTAGACGA,-0.147
20,CAAGGCGC,-0.00691
21,AAAATGCG,0.131
22,GTCAATGA,-0.119
23,CTGAGATA,0.0964
24,ACTGAGCT,-0.0831
25,AAAGACTT,-0.101

row,Sequence,PBM E-score
1,GGGTGCAA,0.0504
2,TAAAGATA,0.156
3,GGGAAAGA,-0.169
4,ACGCTAGA,-0.149
5,ACCGAGGA,-0.0309
6,TAGTGCCA,-0.0263
7,CTTCACTA,-0.0405
8,ACACCGGC,0.0574
9,CGACTGTA,-0.275
10,TATCCTAA,0.0621
11,AAGCAGTC,-0.175
12,TAGTAAAA,0.135
13,ATCAAGTA,0.0178
14,ACAATCTG,0.0274
15,CCATACGA,-0.0587
16,AGTATGTA,-0.145
17,AGCTGGAC,0.00162
18,AAAACTAC,0.0885
19,GACTCTGC,-0.0916
20,GGAATGTA,0.111
21,CTACCTAA,0.0375
22,AACAGGAT,-0.148
23,CTTTGGCA,-0.304
24,GGGCCAAC,-0.225
25,AAAAGGAA,-0.138

# Part of the list above, as tab-separated lines:
row	Sequence	PBM E-score
15	CATACAGG	0.0745
16	AGATGTAA	0.117
17	CCCCTGAG	-0.15
18	ATATCAAG	0.251

# Additional entries.

row,Sequence,PBM E-score
1,ACCGGACC,-0.00801
2,CCAATGTC,-0.0465
3,CATGTGAA,-0.0545
4,CATGGCTC,-0.0206
5,GGTCAAAA,0.124
6,CCCAGGGC,-0.287
7,GAAGACTA,0.0459
8,GATGGCCC,-0.218
9,GATAACAA,0.165
10,ACTAACGG,0.0812
11,ATGGCGTA,-0.108
12,GCTACTTA,-0.191
13,CTACTCCA,-0.143
14,GACTGAGA,0.0552
15,ACTCGCCT,-0.181
16,CATGGTGA,-0.0761
17,GCGTCCCC,-0.27
18,AGGGTGGC,-0.0635
19,CGCTCGAG,0.159
20,CTCCACGC,-0.114
21,CCCTAGTA,-0.0741
22,ACCGACCT,-0.122
23,AGATGCTC,0.054
24,CAGTGGCG,-0.0554
25,GTAGGCCA,-0.024

row,Sequence,PBM E-score
1,CGTCCCAG,-0.129
2,ACGTGTTG,0.134
3,ACCGATGG,-0.143
4,AGCTATAC,-0.0476
5,GAAGTTGC,-0.255
6,CGACATAA,0.222
7,CTCGCAGC,0.0776
8,GAGGGATC,-0.185
9,GAAGTTTA,0.138
10,AGTCGGCG,0.0599
11,ACTCGTGC,-0.112
12,TAAGCAGA,0.143
13,CCAACGCA,0.0411
14,ACCTTAGT,-0.0801
15,CCCAACGA,0.0341
16,GACGACTC,-0.102
17,AGGACTCA,-0.0986
18,AACCTGAC,0.0197
19,AGACCTCA,-0.117
20,AGCTGAAA,0.135
21,AATGTCCT,-0.0961
22,ATGGCTCA,-0.0443
23,AGGTACTC,-0.0795
24,ACCTGCGG,-0.0391
25,CACGATCA,0.0828

row,Sequence,PBM E-score
1,CGCATGCC,0.252
2,TCATCGGA,0.232
3,TCGGGGCA,-0.258
4,ACATTTTC,0.177
5,GACCTCCC,-0.247
6,CGCTAACC,-0.0668
7,TAGGATAA,0.0906
8,ATCGTCAC,0.148
9,GTGCTTAA,0.155
10,CCAGAAGG,-0.0726
11,ACAACTAA,0.246
12,ACTGACAA,0.264
13,GCAAGTCA,-0.0574
14,GGACATGA,-0.0277
15,ATCCTAAA,-0.12
16,ACCTAATA,0.137
17,AAGACGCA,-0.00656
18,AGTTTTAG,0.0658
19,GTTACTTA,-0.0383
20,GCGCCCGA,0.0517
21,TAGCGACA,0.0174
22,CACCAGAG,-0.111
23,AGCTCCAC,-0.0867
24,AAATAAGG,0.0586
25,GGTATAAC,-0.183

# Reprinted at random: 6 records from the list
row,Sequence,PBM E-score
5,GGTCAAAA,0.124
14,ACCTTAGT,-0.0801
18,AAAACTAC,0.0885
24,CAGTGGCG,-0.0554
16,CATGGTGA,-0.0761
24,ACCTGCGG,-0.0391

# Later entries:

row,Sequence,PBM E-score
1,ATCGGCGC,0.0663
2,ACGCCTCA,-0.115
3,GCATTAAC,0.0922
4,AGGAAGAC,-0.243
5,ACACGATG,-0.0224
6,TAGATGGA,-0.181
7,GAGTCCGC,-0.377
8,CACGGAAA,0.13
9,ATCACAAT,0.21
10,TCCACGCA,0.028
11,ACGTGACG,0.0862
12,CTAGCAAC,0.0306
13,GGACGCAC,0.0124
14,GTAGAATA,0.106
15,CAGCTCGG,0.00696
16,ACACGAAT,0.0874
17,GTATCGGA,-0.00518
18,ACTACCGA,-0.25
19,ATTCCGCG,0.185
20,AATATGAA,-0.00421
21,CTGCCTGA,0.143
22,AAGCCAGA,-0.0133
